Measurements reported in patent US11130780B2 (Washington University, priority 2015, dated 2021).
HELM strings list residues between dots; [ac] is acetyl, [am] amide, other brackets name non-standard units.

Assay: general procedure: hybrid (solid and solution phase) peptide synthesis; Fmoc-amino acid-preloaded 2-Cl-trityl resin; HBTU/iPr2NEt (tripeptide on resin); HATU/DIPEA (solution coupling to Arg ketothi)

Substance	step yield (coupling step) [%]	step yield (late stage modification step) [%]
PEPTIDE1{[ac].S.K.L.R.[kbt-6-CO-Phe-NH2]}$$$$V2.0	25	
PEPTIDE1{[ac].S.K.L.R.[kbt-6-CONHBn]}$$$$V2.0		33
PEPTIDE1{[ac].K.Q.L.R.[kbt-6-CO-Val-NH2]}$$$$V2.0	11	
PEPTIDE1{[ac].S.K.L.R.[kbt-6-COOH]}$$$$V2.0		29
PEPTIDE1{[ac].F.L.F.R.[kbt]}$$$$V2.0	47	
PEPTIDE1{[ac].W.L.F.R.[kbt]}$$$$V2.0	19	
PEPTIDE1{[ac].S.K.L.R.[kbt-6-CONH-4-pyridyl]}$$$$V2.0		18
PEPTIDE1{[ac].K.R.L.R.[kbt]}$$$$V2.0	38	
PEPTIDE1{[ac].K.R.L.R.[kbt-6-CO-Val-NH2]}$$$$V2.0	28	
PEPTIDE1{W.R.L.R.[kbt]}$$$$V2.0	39	
PEPTIDE1{[ac].S.K.L.R.[kbt]}$$$$V2.0	23	
PEPTIDE1{[ac].S.K.L.R.[kbt-6-CO-Trp-NH2]}$$$$V2.0	24	
